Data as given in PubChem BioAssay AID652243 (Drosophila RNAi Screening Center, 2013).
In all, the deposit lists about 24,000 reagents; shown is a random part of those with a known target gene and a result. Of all reagents, 246 (1%) were called active. 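Plates not normalised; calls are printed but the firefly/Renilla ratio behind them is not deposited; fold cut for lowering reported inconsistently.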 Raw values are not corrected between plates. The numbers tell different reagents against one gene apart. Names joined by + are all predicted targets of the reagent. Not stated in the record: the amount of reagent.

Test: 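Knock-downs that decrease or increase androgen receptor reporter signal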 (primary screen)
System: Drosophila S2R+ cells
Reagent: long dsRNA against Drosophila genes
Time to read-out: 72 h (48 h, then 24 h hormone)
Conditions: synthetic androgen R1881 at 10 nM for 24 h
Measurement: 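Firefly light from an androgen-responsive reporter and Renilla control light per well, raw and unnormalised, for each of two replicates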
Scale: firefly reporter light: higher = more light from androgen-responsive reporter; Renilla control light: higher = more constitutive control signal (cell number, transfection)
Rule for the call: 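Across duplicate plates, a knock-down whose log firefly/Renilla ratio shifted a set fold down or up from the GFP/LacZ control mean was a hit; the downward cut appears as both 1.5 and 3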
Meaning of the calls: active = hit: reporter lowered or raised; inactive = no hit

The first 5 entries, ahead of the listing:
gene	reagent	firefly reporter light, replicate 1	firefly reporter light, replicate 2	Renilla control light, replicate 1	Renilla control light, replicate 2	Call
mspo	1	89761	82919	2.83e6	2.83e6	active
mspo	2	9.09e5	1.05e6	1.80e6	1.29e6	inactive
CG31528	1	1.70e5	1.51e5	5.19e5	5.86e5	inactive
CG2260	1	1.16e5	1.05e5	8.44e5	5.39e5	inactive
CG2260	2	2.17e5	2.95e5	4.76e5	1.27e6	inactive

The list itself, repeating the preview:
gene	reagent	firefly reporter light, replicate 1	firefly reporter light, replicate 2	Renilla control light, replicate 1	Renilla control light, replicate 2	Call
mspo	1	89761	82919	2.83e6	2.83e6	active
mspo	2	9.09e5	1.05e6	1.80e6	1.29e6	inactive
CG31528	1	1.70e5	1.51e5	5.19e5	5.86e5	inactive
CG2260	1	1.16e5	1.05e5	8.44e5	5.39e5	inactive
CG2260	2	2.17e5	2.95e5	4.76e5	1.27e6	inactive
Spt	1	2.96e5	3.92e5	2.13e6	2.41e6	inactive
Spt	2	5.49e5	3.48e5	8.37e5	8.37e5	inactive
MTPAP	1	2.04e5	1.69e5	2.69e6	2.42e6	inactive
MTPAP	2	1.07e6	6.94e5	1.37e6	8.06e5	inactive
zetaCOP	1	2.35e5	2.04e5	1.80e6	1.84e6	inactive
CG5773	1	2.44e5	4.38e5	1.98e6	1.98e6	inactive
CG5773	2	8.11e5	5.32e5	1.25e6	1.43e6	inactive
Teh1	1	71548	1.26e5	1.30e6	1.92e6	inactive
DIP-iota	1	2.36e5	2.50e5	1.41e6	1.61e6	inactive
DIP-iota	2	8.23e5	9.34e5	7.76e5	6.60e5	inactive
Mkp + CG34140	1	5.27e5	6.87e5	1.17e6	1.13e6	inactive
snu	1	1.39e5	1.49e5	1.51e6	1.16e6	inactive
karr	1	2.65e5	3.19e5	6.28e5	6.41e5	inactive
CG4324	1	2.09e5	2.65e5	1.11e6	1.20e6	inactive
CG4324	2	1.97e5	2.11e5	5.21e5	8.62e5	inactive
Acbp1	1	2.52e5	3.66e5	2.51e6	2.32e6	inactive
Acbp1	2	5.82e5	6.56e5	1.72e6	1.68e6	inactive
CG31191	1	2.30e5	2.96e5	2.84e6	2.66e6	inactive
Alp11	1	3.37e5	2.48e5	4.24e6	4.18e6	inactive
Alp11	2					inactive
Pcp	1	1.81e5	2.06e5	2.05e6	1.64e6	inactive
CG12439	1	2.18e5	1.54e5	1.93e6	1.29e6	inactive
Lcp65Ad	1	2.35e5	1.98e5	3.47e6	2.36e6	inactive
Lcp65Ad	2	5.39e5	3.63e5	3.61e5	2.32e5	inactive
CG9897 + asRNA:CR42742	1	2.86e5	4.27e5	2.13e6	1.92e6	inactive
wfs1	1	2.40e5	2.30e5	2.75e6	2.46e6	inactive
sncRNA:158	1	6.72e5	7.04e5	1.46e6	1.36e6	inactive
Ttc7	1	1.12e6	1.18e6	1.98e6	2.03e6	inactive
AgmNAT	1	1.58e5	1.70e5	1.41e6	2.51e6	inactive
onecut	1	2.74e5	2.11e5	5.00e6	3.24e6	inactive
onecut	2	3.64e5	2.97e5	7.36e5	7.39e5	inactive
beat-Vb	1	2.44e5	2.21e5	2.60e5	5.93e5	inactive
beat-Vb	2	4.24e5	5.07e5	2.42e6	3.56e6	inactive
beat-Vb	3	71828	96568	1.64e6	2.09e6	inactive
CG31245	1	2.53e5	2.41e5	3.36e6	3.71e6	inactive
CG34219	1	7.31e5	7.13e5	1.35e6	2.46e6	inactive
MICU1	1	7.25e5	9.32e5	1.14e6	8.88e5	inactive
CG12194	1	87330	69106	4.60e5	4.67e5	inactive
CG12194	2	1.06e6	1.14e6	1.20e6	1.16e6	inactive
CG18420	1	1.93e5	2.64e5	2.23e6	2.83e6	inactive
lsn	1	1.42e5	1.92e5	2.62e6	3.63e6	inactive
lsn	2	7.37e5	6.73e5	1.00e6	1.06e6	inactive
Tep1	1	1.21e5	1.71e5	1.32e6	1.53e6	inactive
Tep1	2	5.72e5	5.54e5	7.79e5	6.87e5	inactive
eIF3e	1	3.00e5	2.42e5	1.58e6	1.27e6	inactive
Mpc1	1	1.34e5	1.06e5	8.25e5	7.04e5	inactive
Mad1	1	1.17e6	7.57e5	1.99e6	1.96e6	inactive
CG14352	1	93112	88839	7.41e5	9.04e5	inactive
wdp	1	9.09e5	5.69e5	1.37e6	8.93e5	inactive
wdp	2	5.76e5	4.66e5	1.49e6	1.33e6	inactive
Mctp	1	1.78e5	1.78e5	2.30e6	2.16e6	inactive
Mctp	2	5.66e5	8.83e5	1.82e6	2.82e6	inactive
Mctp	3	6.79e5	9.75e5	1.29e6	1.12e6	inactive
Mctp	4	5.95e5	4.56e5	1.20e6	1.65e6	inactive
